Test results from US11584800B2 (DAIICHI SANKYO COMPANY, LIMITED, priority 2014, dated 2023).

Experiment: general procedure: solution-phase peptide synthesis; N-hydroxysuccinimide / 1-ethyl-3-(3-dimethylaminopropyl)carbodiimide hydrochlori
Settings: for conjugation yield: conjugation step; for step yield: late stage modification step
[1] = trifluoroacetate (deprotected intermediates)

Substance | conjugation yield [1] | further results
N-(tert-Butoxycarbonyl)glycylglycyl-L-phenylalanylglycyl-N-[(1S,9S)-9-ethyl-5-fluoro-9-hydroxy-4-methyl-10,13-dioxo-2,3,9,10,13,15-hexahydro-1H,12H-benzo[de]pyrano[3′,4′:6,7]indolizino[1,2-b]quinolin-1-yl]-β-alaninamide | 87% | –
Glycylglycyl-L-phenylalanylglycyl-N-[(1S,9S)-9-ethyl-5-fluoro-9-hydroxy-4-methyl-10,13-dioxo-2,3,9,10,13,15-hexahydro-1H,12H-benzo[de]pyrano[3′,4′:6,7]indolizino[1,2-b]quinolin-1-yl]-β-alaninamide trifluoroacetate | – | step yield (trifluoroacetate): 92%
N-[3-(2,5-Dioxo-2,5-dihydro-1H-pyrrol-1-yl)propanoyl]glycylglycyl-L-phenylalanylglycyl-N-[(1S,9S)-9-ethyl-5-fluoro-9-hydroxy-4-methyl-10,13-dioxo-2,3,9,10,13,15-hexahydro-1H,12H-benzo[de]pyrano[3′,4′:6,7]indolizino[1,2-b]quinolin-1-yl]-β-alanin | 57% | –
N-(tert-Butoxycarbonyl)glycylglycyl-L-phenylalanyl-N-(4-{[(1S,9S)-9-ethyl-5-fluoro-9-hydroxy-4-methyl-10,13-dioxo-2,3,9,10,13,15-hexahydro-1H,12H-benzo[de]pyrano[3′,4′:6,7]indolizino[1,2-b]quinolin-1-yl]amino}-4-oxobutyl)glycinamide | 73% | –
Glycylglycyl-L-phenylalanyl-N-[2-(2-{[(1S,9S)-9-ethyl-5-fluoro-9-hydroxy-4-methyl-10,13-dioxo-2,3,9,10,13,15-hexahydro-1H,12H-benzo[de]pyrano[3′,4′:6,7]indolizino[1,2-b]quinolin-1-yl]amino}-2-oxoethoxy)ethyl]glycinamide | – | step yield (trifluoroacetic acid salt): 92%
N-(tert-Butoxycarbonyl)glycylglycyl-L-phenylalanyl-N-[2-(2-{[(1S,9S)-9-ethyl-5-fluoro-9-hydroxy-4-methyl-10,13-dioxo-2,3,9,10,13,15-hexahydro-1H,12H-benzo[de]pyrano[3′,4′:6,7]indolizino[1,2-b]quinolin-1-yl]amino}-2-oxoethoxy)ethyl]glycinamide | 95% | –
N-[6-(2,5-Dioxo-2,5-dihydro-1H-pyrrol-1-yl)hexanoyl]glycylglycyl-L-phenylalanylglycyl-N-[(1S,9S)-9-ethyl-5-fluoro-9-hydroxy-4-methyl-10,13-dioxo-2,3,9,10,13,15-hexahydro-1H,12H-benzo[de]pyrano[3′,4′:6,7]indolizino[1,2-b]quinolin-1-yl]-β-alanina | 21% | –
Glycylglycyl-L-phenylalanyl-N-[(carboxymethoxy)methyl]glycinamide | – | step yield [1]: 82%
N-[6-(2,5-Dioxo-2,5-dihydro-1H-pyrrol-1-yl)hexanoyl]glycylglycyl-L-phenylalanyl-N-[(carboxymethoxy)methyl]glycinamide | – | step yield [1]: 71%
Glycylglycyl-L-phenylalanyl-N-(4-{[(1S,9S)-9-ethyl-5-fluoro-9-hydroxy-4-methyl-10,13-dioxo-2,3,9,10,13,15-hexahydro-1H,12H-benzo[de]pyrano[3′,4′:6,7]indolizino[1,2-b]quinolin-1-yl]amino}-4-oxobutyl)glycinamide | – | step yield (trifluoroacetate): 99%
